Data set [1] deals with T1, Dmc1 (UniProt O42634).
T1 sequence (looked up, limits assumed): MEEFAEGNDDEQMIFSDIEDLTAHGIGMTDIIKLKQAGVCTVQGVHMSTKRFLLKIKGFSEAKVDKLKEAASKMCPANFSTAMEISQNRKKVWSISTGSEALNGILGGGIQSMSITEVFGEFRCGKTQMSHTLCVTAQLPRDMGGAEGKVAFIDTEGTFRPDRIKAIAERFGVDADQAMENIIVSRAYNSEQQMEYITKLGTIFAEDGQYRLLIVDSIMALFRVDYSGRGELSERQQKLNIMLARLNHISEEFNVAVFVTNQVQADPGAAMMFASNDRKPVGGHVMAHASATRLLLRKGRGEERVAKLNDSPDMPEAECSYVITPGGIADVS
In words: fluorescence anisotropy. The conditions noted are these: filament stable for 1600 s under strand exchange conditions; 30 mM HEPES-KOH pH 7.5, 100 mM KCl, 3 mM MgCl2 or CaCl2, 1 mM DTT, 5% glycerol, 1 mM adenine nucleotide, 3 uM (nt) TAMRA-dT72, 25 C; recombinant protein; label: 5' FAM; single-stranded DNA.

The target of data set [2] is T2, Rad51 (UniProt P36601).
T2 sequence (looked up, limits assumed): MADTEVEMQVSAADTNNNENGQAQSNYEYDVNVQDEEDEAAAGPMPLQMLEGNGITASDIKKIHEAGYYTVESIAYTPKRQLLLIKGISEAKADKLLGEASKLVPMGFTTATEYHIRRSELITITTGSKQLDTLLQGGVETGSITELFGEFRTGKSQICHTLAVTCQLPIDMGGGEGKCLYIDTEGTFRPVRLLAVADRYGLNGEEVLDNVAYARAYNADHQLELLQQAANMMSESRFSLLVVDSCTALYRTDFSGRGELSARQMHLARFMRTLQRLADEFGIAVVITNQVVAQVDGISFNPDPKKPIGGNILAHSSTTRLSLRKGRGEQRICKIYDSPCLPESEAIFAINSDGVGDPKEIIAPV
Nature of the data set: fluorescence anisotropy. Conditions: Swi5-Sfr1 present, affinity reduced in a concentration-dependent manner; 30 mM HEPES-KOH pH 7.5, 100 mM KCl, 3 mM MgCl2 or CaCl2, 1 mM DTT, 5% glycerol, 1 mM adenine nucleotide, 3 uM (nt) TAMRA-dT72, 25 C; recombinant protein; label: 5' TAMRA; single-stranded DNA. In general terms: In fluorescence polarisation assays a small probe gives low polarisation when free and higher when bound to something large.

Construct, isoform or probe ends are uncertain for at least one entry. For some assays here: Weaker means in comparison with the reference protein, sequence or condition of that experiment. Where a protein sequence is shown, tags need not be part of it. For some assays here: At least one verdict was read from the data and is not stated in words by the source.

“AAATGAACATAAAGTAAATAAGTATAAGGATAATACAAAATAAGTAAATGAATAAACATAGAAAATAAAGTAAAGGATATAAA [FAM-16A(-)]”: in data set [1], the binding result is “binds”.
For the sequence “TTTTTTTTTTTTTTTTTTTTTTTTTTTTTTTTTTTTTTTTTTTTTTTTTTTTTTTTTTTTTTTTTTTTTTTT [[TAMRA]dT72]”, the binding result in data set [2] is “binds more weakly”.

Source of the values: paper PMC11551746, “The Swi5–Sfr1 complex regulates Dmc1- and Rad51-driven DNA strand exchange proceeding through two distinct three-stranded intermediates by different mechanisms” (Nucleic Acids Research, 2024).
